Reference: publication PMC12300445
Results are given in words; binding and its absence hold for the method and conditions named. Binding seen in cells or lysates may run through a third protein. Some binding calls cover weakened binding; strength is not graded here.

Chains of the proteins cited; added tags and fusions are not shown.
UniProt Q13547: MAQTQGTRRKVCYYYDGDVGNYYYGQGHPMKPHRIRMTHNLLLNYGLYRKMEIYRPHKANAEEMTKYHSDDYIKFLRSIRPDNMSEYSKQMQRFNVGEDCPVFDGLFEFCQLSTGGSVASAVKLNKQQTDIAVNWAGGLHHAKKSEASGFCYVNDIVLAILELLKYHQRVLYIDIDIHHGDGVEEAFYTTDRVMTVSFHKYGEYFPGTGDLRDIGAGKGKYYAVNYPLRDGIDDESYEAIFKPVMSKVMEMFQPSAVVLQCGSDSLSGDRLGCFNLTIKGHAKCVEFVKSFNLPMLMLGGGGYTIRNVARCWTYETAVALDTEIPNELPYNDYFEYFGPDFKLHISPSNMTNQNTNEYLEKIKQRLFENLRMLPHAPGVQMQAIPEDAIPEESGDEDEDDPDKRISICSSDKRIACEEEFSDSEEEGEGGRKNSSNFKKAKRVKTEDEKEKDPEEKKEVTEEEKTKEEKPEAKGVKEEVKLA
UniProt Q16666: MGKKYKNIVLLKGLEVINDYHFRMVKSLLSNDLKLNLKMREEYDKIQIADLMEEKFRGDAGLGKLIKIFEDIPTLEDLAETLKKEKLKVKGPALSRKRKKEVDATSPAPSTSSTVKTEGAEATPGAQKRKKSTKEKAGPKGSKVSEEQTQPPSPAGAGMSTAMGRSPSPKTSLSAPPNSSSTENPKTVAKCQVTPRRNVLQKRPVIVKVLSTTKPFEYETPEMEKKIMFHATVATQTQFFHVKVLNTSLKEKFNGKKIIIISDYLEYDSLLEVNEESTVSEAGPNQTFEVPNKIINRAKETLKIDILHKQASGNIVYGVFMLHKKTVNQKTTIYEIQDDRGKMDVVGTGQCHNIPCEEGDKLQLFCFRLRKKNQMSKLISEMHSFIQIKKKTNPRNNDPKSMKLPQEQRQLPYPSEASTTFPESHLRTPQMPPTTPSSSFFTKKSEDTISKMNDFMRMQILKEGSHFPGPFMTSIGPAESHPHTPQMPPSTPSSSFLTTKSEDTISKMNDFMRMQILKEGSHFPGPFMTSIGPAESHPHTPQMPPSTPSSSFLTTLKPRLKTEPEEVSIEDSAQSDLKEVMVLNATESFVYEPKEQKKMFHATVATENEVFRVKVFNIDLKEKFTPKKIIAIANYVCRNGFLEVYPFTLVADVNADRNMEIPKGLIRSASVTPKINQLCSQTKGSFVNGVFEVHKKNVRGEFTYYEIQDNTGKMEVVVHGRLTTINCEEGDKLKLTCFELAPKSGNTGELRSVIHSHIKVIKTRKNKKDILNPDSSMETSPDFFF
UniProt Q14839: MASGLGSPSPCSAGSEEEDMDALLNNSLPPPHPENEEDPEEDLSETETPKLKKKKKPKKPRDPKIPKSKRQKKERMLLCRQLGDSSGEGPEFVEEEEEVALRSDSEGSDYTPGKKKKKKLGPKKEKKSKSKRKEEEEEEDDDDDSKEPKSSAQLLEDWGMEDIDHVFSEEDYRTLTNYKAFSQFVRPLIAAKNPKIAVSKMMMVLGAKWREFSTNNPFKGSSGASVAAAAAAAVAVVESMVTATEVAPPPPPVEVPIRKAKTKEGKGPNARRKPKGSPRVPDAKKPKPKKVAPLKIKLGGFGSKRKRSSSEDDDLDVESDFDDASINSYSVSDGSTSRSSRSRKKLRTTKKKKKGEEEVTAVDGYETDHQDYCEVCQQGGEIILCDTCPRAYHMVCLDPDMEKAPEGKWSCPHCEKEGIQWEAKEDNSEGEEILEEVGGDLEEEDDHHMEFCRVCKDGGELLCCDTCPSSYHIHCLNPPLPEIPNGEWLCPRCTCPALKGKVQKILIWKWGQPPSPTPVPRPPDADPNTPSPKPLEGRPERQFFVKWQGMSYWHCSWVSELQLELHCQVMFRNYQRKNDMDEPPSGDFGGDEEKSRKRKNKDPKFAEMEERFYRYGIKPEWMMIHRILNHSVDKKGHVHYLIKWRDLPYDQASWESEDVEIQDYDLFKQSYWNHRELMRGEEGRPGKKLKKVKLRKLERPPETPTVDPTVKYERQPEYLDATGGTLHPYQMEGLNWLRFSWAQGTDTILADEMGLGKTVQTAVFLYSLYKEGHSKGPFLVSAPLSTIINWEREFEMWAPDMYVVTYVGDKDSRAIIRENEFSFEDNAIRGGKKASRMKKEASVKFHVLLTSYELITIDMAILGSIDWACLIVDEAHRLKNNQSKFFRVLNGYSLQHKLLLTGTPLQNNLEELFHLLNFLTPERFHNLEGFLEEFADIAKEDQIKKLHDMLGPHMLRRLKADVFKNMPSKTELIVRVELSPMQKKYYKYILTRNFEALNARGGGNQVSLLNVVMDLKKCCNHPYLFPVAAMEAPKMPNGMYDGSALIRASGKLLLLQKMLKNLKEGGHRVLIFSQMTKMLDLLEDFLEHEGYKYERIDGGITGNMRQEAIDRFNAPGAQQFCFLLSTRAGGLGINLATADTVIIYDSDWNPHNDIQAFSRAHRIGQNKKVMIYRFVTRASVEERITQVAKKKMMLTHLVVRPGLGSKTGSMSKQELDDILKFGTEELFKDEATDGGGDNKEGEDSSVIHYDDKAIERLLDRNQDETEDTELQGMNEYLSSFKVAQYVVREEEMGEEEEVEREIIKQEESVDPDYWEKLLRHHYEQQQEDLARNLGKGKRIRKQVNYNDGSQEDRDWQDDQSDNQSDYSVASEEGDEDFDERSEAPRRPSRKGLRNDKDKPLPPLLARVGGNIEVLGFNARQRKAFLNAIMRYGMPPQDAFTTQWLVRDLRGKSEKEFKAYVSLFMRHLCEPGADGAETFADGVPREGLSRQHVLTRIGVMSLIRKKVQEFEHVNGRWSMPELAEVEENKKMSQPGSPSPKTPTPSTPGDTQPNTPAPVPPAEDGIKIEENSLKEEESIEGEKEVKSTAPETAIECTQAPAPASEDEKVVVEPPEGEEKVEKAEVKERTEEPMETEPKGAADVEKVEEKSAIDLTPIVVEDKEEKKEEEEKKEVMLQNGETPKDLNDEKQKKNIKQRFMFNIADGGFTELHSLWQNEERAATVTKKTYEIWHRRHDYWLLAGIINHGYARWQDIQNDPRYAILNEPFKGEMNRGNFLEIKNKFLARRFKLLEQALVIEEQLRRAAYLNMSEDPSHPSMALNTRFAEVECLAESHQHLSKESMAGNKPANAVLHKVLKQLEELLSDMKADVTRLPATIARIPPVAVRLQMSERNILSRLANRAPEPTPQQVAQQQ
UniProt Q9UKL0: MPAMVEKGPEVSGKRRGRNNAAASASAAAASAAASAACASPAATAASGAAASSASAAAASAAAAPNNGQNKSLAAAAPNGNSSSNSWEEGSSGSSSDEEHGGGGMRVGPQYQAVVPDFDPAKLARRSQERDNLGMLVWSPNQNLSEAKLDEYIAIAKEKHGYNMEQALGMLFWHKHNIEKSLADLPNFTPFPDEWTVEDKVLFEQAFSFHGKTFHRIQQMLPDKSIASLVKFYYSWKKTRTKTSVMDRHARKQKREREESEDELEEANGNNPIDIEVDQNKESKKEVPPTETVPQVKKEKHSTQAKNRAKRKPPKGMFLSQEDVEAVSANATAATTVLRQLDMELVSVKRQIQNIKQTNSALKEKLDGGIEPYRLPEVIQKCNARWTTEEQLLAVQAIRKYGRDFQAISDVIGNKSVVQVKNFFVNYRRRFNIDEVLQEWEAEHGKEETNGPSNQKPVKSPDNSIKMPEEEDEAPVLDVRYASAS

How the values were obtained:
[1] = target: histone deacetylase 1 (HDAC1) (human (endogenous in BCBL-1)) (UniProt Q13547); test: proximity ligation; DUOLink PLA of HDAC1 with CHD4 or Sin3A in BCBL-1 cells transduced with control shRNA (shC) or shIFI16 (IFI16 knock-down)
[2] = target: interferon gamma-inducible protein 16 (IFI16) (human (endogenous in BCBL-1)) (UniProt Q16666); test: proximity ligation; DUOLink PLA in acetone-fixed and permeabilized BCBL-1 cells; IFI16 antibody with antibody to CHD4, Sin3A, CoREST or IgG; dots counted in at least 15 cells

For CHD4 (from UniProt Q14839 1-1912), the binding [1] was “binds” and the binding [2] was “binds”.

In the case of CoREST (from UniProt Q9UKL0 1-485), the binding [2] is reported as “no binding”.
